PubChem BioAssay AID1671195 – Yale University | 2021
Here is one part, drawn at random, of about 22,000 reagents tested. About 1,510 of all reagents (6.9%) count as active. 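Active includes knockdowns raising or lowering LDL uptake; positive z-scores mean more uptake, negative mean less.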

Screen: 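Knockdowns that increase or decrease uptake of fluorescent LDL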 (primary screen)
Cells: human Huh7 hepatoma cells
Reagent: siRNA pool against human genes, 18 nM
Time to read-out: about 2 to 2.5 days of knockdown, then 8 h LDL uptake
Conditions: DiI-labelled LDL at 30 µg/ml for 8 h, in lipoprotein-deficient serum medium
Read-out: 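Fluorescent LDL signal imaged in cells, scaled to the plate median, robust z-score for each replicate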
Reading the numbers: robust z-score: higher = more LDL uptake after knockdown
Hit rule: 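Active when two or more replicates show a robust z-score above 2 or below -2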

| Target gene | PubChem SID | robust z-score, replicate 1 | robust z-score, replicate 2 | robust z-score, replicate 3 | call |
| --- | --- | --- | --- | --- | --- |
| ANKRD37 | SID442901103 | -1.18 | -0.345 | -1.02 | inactive |
| C8orf58 | SID442887796 | 0.638 | 1.25 | 0.63 | inactive |
| GARRE1 | SID442886873 | 1.69 | 1.39 | 0.0431 | inactive |
| RETN | SID442895671 | -1.14 | 0.483 | 0.0777 | inactive |
| ZNF423 | SID442901343 | -1.03 | -1.17 | -0.459 | inactive |
| RIPK4 | SID442888720 | 0.716 | 0.556 | 0.746 | inactive |
| MAP1LC3BP1 | SID442898697 | -0.481 | -0.788 | -0.313 | inactive |
| ASH1L | SID442891778 | 0.493 | -0.279 | 0.524 | inactive |
| PABPC1P4 | SID442884662 | 2.59 | 1.78 | 1.72 | inactive |
| MDM4 | SID442886636 | 1.2 | 1.37 | 0.734 | inactive |
| OR52A5 | SID442898705 | -0.964 | -0.187 | -0.434 | inactive |
| ITIH2 | SID442894647 | 0.334 | -0.617 | 0.0249 | inactive |
| CLGN | SID442895164 | -0.411 | 0.00505 | -0.0178 | inactive |
| MAMDC4 | SID442902749 | -1.24 | -1.01 | -1.17 | inactive |
| GAS7 | SID442904141 | -1.6 | -1.47 | -1.45 | inactive |
| GATA2 | SID442891067 | 0.335 | 0.298 | 0.374 | inactive |
| FLRT3 | SID442884182 | 2.38 | 1.11 | 1.9 | active |
| HCN3 | SID442895548 | -0.113 | -0.112 | -0.315 | inactive |
| OR8H2 | SID442883287 | 3.29 | 3.3 | 3.68 | active |
| LOC441845 (retired record) | SID442886377 | 0.787 | 1.26 | 1.49 | inactive |
| LOC391824 (retired record) | SID442891533 | 0.137 | 0.408 | 0.28 | inactive |
| ISCU | SID442884949 | 0.598 | 3.36 | 1.34 | inactive |
| KRTAP8-1 | SID442892953 | -0.0491 | -0.0223 | 0.384 | inactive |
| TAF8 | SID442884506 | -2.04 | -2.2 | -2.53 | active |
| NDUFS5 | SID442891735 | 0.926 | -0.0446 | -0.13 | inactive |
| SART3 | SID442902338 | -1.11 | 0.154 | -2.21 | inactive |
| ATP13A2 | SID442888259 | 0.868 | 1.21 | 0.186 | inactive |
| FCSK | SID442884296 | -1.51 | -1.92 | -2.13 | active |
| DYNC2H1 | SID442883815 | 2.16 | 2.61 | 2.07 | active |
| ARK2N | SID442890239 | 0.126 | 0.689 | 0.517 | inactive |
| CYP3A4 | SID442898419 | -0.316 | -0.324 | -0.849 | inactive |
| MFSD12 | SID442899157 | -0.214 | -0.737 | -0.804 | inactive |
| TMEM161A | SID442900338 | 0.298 | -1.4 | -1.14 | inactive |
| PRRG4 | SID442903847 | -1.59 | -1.42 | -1.22 | inactive |
| RBM25 | SID442903339 | -0.777 | -1.3 | -1.76 | inactive |
| ELAVL4 | SID442898677 | -0.456 | -0.637 | -0.483 | inactive |
| DAND5 | SID442898487 | -0.422 | -0.425 | -0.665 | inactive |
| ZBED8 | SID442888930 | 1.11 | 0.595 | 0.212 | inactive |
| SV2A | SID442901334 | -0.693 | -0.995 | -0.964 | inactive |
| LINC01620 | SID442883424 | 2.33 | 3.73 | 2.75 | active |
| MAP7 | SID442904662 | -1.97 | -1.49 | -1.91 | inactive |
| SLC10A5 | SID442897209 | -0.594 | -0.347 | -0.134 | inactive |
| SMC6 | SID442889067 | 0.981 | 0.199 | 0.673 | inactive |
| SIMC1 | SID442892558 | -0.188 | 0.142 | 0.501 | inactive |
| SP8 | SID442883644 | 2.85 | 2.21 | 2.49 | active |
| SSC4D | SID442893880 | 0.206 | -0.34 | 0.136 | inactive |

Reagents above marked active, once more:
| Target gene | PubChem SID | robust z-score, replicate 1 | robust z-score, replicate 2 | robust z-score, replicate 3 | call |
| --- | --- | --- | --- | --- | --- |
| FLRT3 | SID442884182 | 2.38 | 1.11 | 1.9 | active |
| OR8H2 | SID442883287 | 3.29 | 3.3 | 3.68 | active |
| TAF8 | SID442884506 | -2.04 | -2.2 | -2.53 | active |
| FCSK | SID442884296 | -1.51 | -1.92 | -2.13 | active |
| DYNC2H1 | SID442883815 | 2.16 | 2.61 | 2.07 | active |
| LINC01620 | SID442883424 | 2.33 | 3.73 | 2.75 | active |
| SP8 | SID442883644 | 2.85 | 2.21 | 2.49 | active |
